{"sequences": {"note": "By UniProt entry, the sequences of proteins in these tests, tags left out. Where a name states a change or a piece, a line headed by the entry shows the natural chain unless it says otherwise.", "UniProt O09165": "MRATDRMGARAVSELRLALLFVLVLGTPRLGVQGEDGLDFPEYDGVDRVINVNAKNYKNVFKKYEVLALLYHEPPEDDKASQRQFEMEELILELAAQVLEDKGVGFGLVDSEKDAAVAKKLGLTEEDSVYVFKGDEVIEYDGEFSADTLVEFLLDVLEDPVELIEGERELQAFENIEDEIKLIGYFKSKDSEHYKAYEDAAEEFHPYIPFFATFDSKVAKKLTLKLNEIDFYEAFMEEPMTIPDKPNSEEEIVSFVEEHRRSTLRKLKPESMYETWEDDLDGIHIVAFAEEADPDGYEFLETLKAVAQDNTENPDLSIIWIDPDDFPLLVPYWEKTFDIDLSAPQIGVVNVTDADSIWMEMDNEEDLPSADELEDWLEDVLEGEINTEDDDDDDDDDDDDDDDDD"}, "source": "patent US20250003955A1", "biological_target": "M. musculus skeletal calsequestrin (MmCasq1) (mouse (M. musculus)) (UniProt O09165)", "assay": "cryo-electron tomography of purified protein (self-association, homodimer)", "note": "No constants are given. Whether binding was seen depends on the method and setting. Some results given as binding are weak or reduced against the parent protein; the word gives no strength.", "data": [{"substance": "M. musculus skeletal calsequestrin (MmCasq1) (from UniProt O09165 35-405)", "values": [{"measurement": "binding", "result": "binds"}]}]}
